The record followed here is PubChem BioAssay AID445 (National Center for Advancing Translational Sciences (NCATS), 2006).

This test can be described thus: IkB Signaling. Conditions: ABC-DLBCL IkBa-CBG/CBR dual luciferase ratio (green luciferase fused to IkBa over red control in OCI-Ly3 lymphoma cells), 4 h. In short, it runs like this:
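Curves were fitted separately to fusion (green), unfused (red) and ratio luminescence, then classed by r2, magnitude and activity. Cells: OCI-Ly3, 4 h compound plus doxycycline at 37C; 10 uM MG-132 defined full response.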

Setting [1] is: measured here: control luc red channel unless noted.

The list shows a part of the results. These are further read-outs of the screen, such as a control signal, another cell line or another target. No call is given for them. Compounds called inactive in the main read-out are mostly missing here. Words in brackets tell the shape of the fitted curve; partial curves, single points and poor fits give uncertain potencies.

In general, AC50 refers to the concentration at which the activity in the assay is half-maximal.

As to `Cc1cc(C)n(-c2nnc(C)n2/N=C/c2ccccc2OCc2ccccc2Cl)n1`, the concentration at half-maximal activity (AC50) under setting [1] was 25.1 µM [falling, partial curve].

Take `O=C(NCc1ccccc1Cl)C(=O)NCC(c1ccc2c(c1)OCO2)N1CCOCC1` (stereo unspecified): under setting [1], the AC50 was 0.0794 µM [falling, full curve, poor fit]. Same read-out and setting: to `CCC(CC)C(=O)N1CCc2cc(OC)c(OC)cc2C1COc1ccc2c(C)cc(=O)oc2c1` (stereo unspecified) belongs 39.8 µM [falling, single point]; to `O=C(NCc1ccccc1Cl)c1cc(-c2ccccc2)n[nH]1`, 6.31 µM [falling, partial curve].

On to `C=CCOc1ccc(/C(CC)=N/O)c(OC)c1`, for which the half-maximal activity concentration (AC50) under setting [1] is 25.1 µM [rising, partial curve]. Consider `O=C(Cn1c2ncccc2c(=O)n1-c1ccccc1)NCc1ccccc1`, for which the AC50 under setting [1] was 15.8 µM [falling, single point]. Consider `O=C(CS(=O)(=O)c1nc(-c2ccc(Cl)cc2)cn1-c1ccccc1)Nc1cccc(Cl)c1`, for which the AC50 under setting [1] was 2.51 µM [falling, partial curve]. On to `Cc1nc(-c2ccccc2)sc1-c1ccc(SCC(=O)Nc2ccccc2)nn1`, for which the concentration at half-maximal activity (AC50) under setting [1] is 39.8 µM [falling, single point]. As for `Cc1ccc(NC(=O)c2ccc(F)c(S(=O)(=O)NCCc3ccccc3)c2)cc1F`, the concentration at half-maximal activity (AC50) under setting [1] is 15.8 µM [falling, partial curve]. Turning to `Cc1oc(-c2cccc(Br)c2)nc1CN1CCC(C(=O)NCc2ccccc2)CC1`, the AC50 under setting [1] was 39.8 µM [falling, single point]. For `Cc1ccc2nc(NC(=O)C3CCCN(S(=O)(=O)c4cccc5nsnc45)C3)sc2c1` (stereo unspecified), under setting [1], the AC50 was 5.01 µM [falling, partial curve]. Take `COc1cccc(CNC(=O)Cc2c(C)c3cc4c(C)coc4cc3oc2=O)c1`: the half-maximal activity concentration (AC50) under setting [1] is 7.94 µM [falling, full curve]. Regarding `COc1cccc(NC(=O)c2csc3c2CCCCC3)c1`, under setting [1], the AC50 is 31.6 µM [falling, single point]. Turning to `COc1ccc(-c2nc(CSCC(=O)NCCc3ccc(OC)c(OC)c3)c(C)o2)cc1`, the AC50 under setting [1] is 39.8 µM [falling, single point]. For `CC(C)NC(=O)C1=CC(c2ccc3c(c2)OCO3)=NS(=O)(=O)N1C`, under setting [1], the half-maximal activity concentration (AC50) was 10 µM [falling, partial curve].

Take `COc1ccc(-c2nnc(Nc3nc4c(OC)cccc4s3)o2)c(OC)c1`: the AC50 runs as follows: (measured here: IkB-luc green channel) 39.8 µM [rising, single point]; (measured here: control luc red channel) 10 µM [falling, partial curve]. On to `Cc1cc(Cl)ccc1NC(=O)CCS(=O)(=O)c1ccc2c(c1)CC(C)N2C(=O)C1CC1` (stereo unspecified), for which the AC50 under setting [1] was 31.6 µM [falling, single point].

As to `COc1ccc(C2C(C(=O)Nc3cccnc3)=C(C)Nc3nc(-c4ccc(OC)c(OC)c4)nn32)cc1` (stereo unspecified), the concentration at half-maximal activity (AC50) under setting [1] was 31.6 µM [falling, single point]. With `CCOC(=O)c1c(C)[nH]c(CCC(=O)NCc2cc(Br)ccc2OC)c1C`, under setting [1], the AC50 is 3.16 µM [falling, single point]. Still for that read-out and setting: the figure for `CCc1c(C)nc(Nc2nc(C)c3cc(OC)ccc3n2)[nH]c1=O` is 12.6 µM [falling, partial curve]; for `O=C(C1CCC1)N1CCc2cc(S(=O)(=O)NCC3COc4ccccc4O3)ccc21` (stereo unspecified) it is 15.8 µM [falling, partial curve]. On the same count and under the same terms, to `Cc1cccc(Cn2c(N3CCN(c4ccccc4)CC3)nc3c2c(=O)n(C)c(=O)n3C)c1` belongs 20 µM [falling, partial curve]; to `COc1ccc(S(=O)(=O)N2Cc3ccccc3CC2C(=O)Nc2nccs2)cc1OC` (stereo unspecified), 5.01 µM [falling, partial curve].

As for `O=C(Nc1ccc2c(c1)CCCN2C(=O)c1cccs1)c1ccccc1Cl`, the AC50 under setting [1] was 20 µM [falling, partial curve]. As for `COc1cccc(C2=NOC(C(=O)NC3CCCCC3)C2)c1` (stereo unspecified), the AC50 under setting [1] is 20 µM [falling, single point]. The same measure, in the same setting: the figure for `Cc1cccc(OCc2nnc(SCn3nnc4ccccc4c3=O)o2)c1` is 31.6 µM [falling, partial curve].

Consider `CC(=O)CSc1nnc2[nH]c(=O)cc(N)n12`, for which, under setting [1], the half-maximal activity concentration (AC50) was 5.01 µM [rising, partial curve]. On the same count and under the same terms, the figure for `COc1cc(C2NC(=O)c3c(sc4c3CCN(C)C4)N2)cc(OC)c1OC` (stereo unspecified) is 20 µM [falling, single point]; for `COc1ccc(Br)cc1CN1C(=O)c2ccccc2C1C(=O)NC1CCCCCC1` (stereo unspecified) it is 10 µM [falling, partial curve]; for `COc1cc(C2c3sc(=O)[nH]c3SC3C4CCC(C4)C23)ccc1O` (stereo unspecified) it is 31.6 µM [falling, single point]. Turning to `COC(=O)c1c(NC(=O)CCCOc2cccc(C)c2)sc2c1C(C(=O)OC)CC2` (stereo unspecified), under setting [1], the AC50 was 15.8 µM [falling, single point]. In the case of `CCc1ccc(CN(Cc2cn[nH]c2-c2ccc(OC)cc2)C(=O)Nc2cc(Cl)ccc2OC)cc1`, under setting [1], the half-maximal activity concentration (AC50) is 25.1 µM [falling, single point]. Take `COC(=O)c1cc(=O)nc2sc3ccccc3n12`: the half-maximal activity concentration (AC50) under setting [1] is 3.98 µM [rising, partial curve]. With `Cc1ccc(-n2ncc(C(=O)NCc3ccco3)c2C2CCN(C(=O)OC(C)(C)C)CC2)c(C)c1`, under setting [1], the AC50 is 25.1 µM [falling, single point]. In the case of `Cc1ccc(-n2ncc3c(NC4CCCCCC4)ncnc32)cc1Cl`, under setting [1], the AC50 was 31.6 µM [falling, partial curve]. `CCCCN(CCCNC(=O)c1cc(Nc2ccc(OC)c(OC)c2)nc2ccccc12)Cc1ccccc1`: under setting [1], the AC50 is 20 µM [falling, partial curve]. Same read-out and setting: to `CCOC(=O)C1=C(C)N=C2SCCC(=O)N2C1c1ccc(OCc2ccccc2)cc1` (stereo unspecified) belongs 15.8 µM [falling, partial curve]; to `O=C(Nc1ccc(OC(F)(F)F)cc1)c1cc2ccccn2n1`, 0.126 µM [rising, full curve]; to `O=c1nc2n(-c3ccccc3F)c3ccccc3cc-2c(=O)[nH]1`, 1.26 µM [rising, partial curve]. On to `CCOC(=O)c1c(NC(=O)c2ccc(S(=O)(=O)N(CC(C)C)CC(C)C)cc2)sc2c1CCN(C(=O)OCC)C2`, for which, under setting [1], the AC50 was 3.16 µM [falling, full curve, poor fit].
